According to article PMC10989685:
Positions count from the first letter of the chain named. No constants are given. Whether binding was seen depends on the method and setting. Some results given as binding are weak or reduced against the parent protein; the word gives no strength. For some assays here: Tags and fused reporters may be left off the sequences shown.

The chains behind the UniProt entries cited, without tags or fusion partners. Residues count along the entry.
UniProt E9Q7X7, residues 29-1634: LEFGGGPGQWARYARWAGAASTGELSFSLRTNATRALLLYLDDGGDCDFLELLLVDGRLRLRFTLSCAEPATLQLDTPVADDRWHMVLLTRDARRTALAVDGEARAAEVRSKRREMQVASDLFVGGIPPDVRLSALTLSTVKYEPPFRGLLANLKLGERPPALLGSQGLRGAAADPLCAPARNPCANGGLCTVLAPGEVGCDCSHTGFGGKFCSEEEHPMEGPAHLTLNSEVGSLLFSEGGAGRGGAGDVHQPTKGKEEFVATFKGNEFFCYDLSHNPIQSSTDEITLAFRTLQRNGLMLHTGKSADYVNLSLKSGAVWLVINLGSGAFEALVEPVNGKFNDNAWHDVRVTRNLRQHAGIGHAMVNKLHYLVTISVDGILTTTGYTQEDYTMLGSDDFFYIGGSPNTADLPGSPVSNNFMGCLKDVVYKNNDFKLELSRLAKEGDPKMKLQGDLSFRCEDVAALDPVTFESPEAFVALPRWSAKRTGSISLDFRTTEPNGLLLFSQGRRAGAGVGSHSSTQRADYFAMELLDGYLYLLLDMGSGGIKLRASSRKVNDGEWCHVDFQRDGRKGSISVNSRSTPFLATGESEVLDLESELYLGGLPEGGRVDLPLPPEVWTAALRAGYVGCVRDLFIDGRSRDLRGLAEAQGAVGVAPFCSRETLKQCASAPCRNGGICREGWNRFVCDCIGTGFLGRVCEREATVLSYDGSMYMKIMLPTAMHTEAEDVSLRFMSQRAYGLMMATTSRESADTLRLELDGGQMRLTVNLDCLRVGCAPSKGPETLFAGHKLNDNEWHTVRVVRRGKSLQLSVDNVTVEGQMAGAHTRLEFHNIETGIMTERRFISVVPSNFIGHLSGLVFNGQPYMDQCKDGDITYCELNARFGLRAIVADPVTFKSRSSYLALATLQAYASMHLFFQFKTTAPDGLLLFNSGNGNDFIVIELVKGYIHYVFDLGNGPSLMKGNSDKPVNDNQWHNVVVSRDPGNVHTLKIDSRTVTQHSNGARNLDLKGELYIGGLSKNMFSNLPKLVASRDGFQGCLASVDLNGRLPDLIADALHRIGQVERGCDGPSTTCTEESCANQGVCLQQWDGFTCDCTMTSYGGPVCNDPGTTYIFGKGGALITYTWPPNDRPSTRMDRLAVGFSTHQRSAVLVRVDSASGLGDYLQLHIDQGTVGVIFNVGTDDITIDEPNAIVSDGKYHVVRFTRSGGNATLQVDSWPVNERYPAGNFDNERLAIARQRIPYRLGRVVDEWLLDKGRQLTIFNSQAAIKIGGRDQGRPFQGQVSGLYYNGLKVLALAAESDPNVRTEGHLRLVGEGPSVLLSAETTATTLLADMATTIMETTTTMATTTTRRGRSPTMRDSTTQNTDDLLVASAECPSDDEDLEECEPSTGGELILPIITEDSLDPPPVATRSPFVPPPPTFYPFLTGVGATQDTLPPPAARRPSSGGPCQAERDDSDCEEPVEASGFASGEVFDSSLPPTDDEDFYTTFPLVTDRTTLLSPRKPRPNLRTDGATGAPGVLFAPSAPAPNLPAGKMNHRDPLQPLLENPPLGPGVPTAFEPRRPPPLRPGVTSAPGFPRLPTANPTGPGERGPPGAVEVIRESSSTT

Legend:
Test in all cases: in situ cell surface binding assay (fluorescence microscopy); HEK293T conditioned medium with Nrxn2α-Fc applied for 1 h at 4°C to COS7 cells expressing HA-tagged IgSF21 forms, in extracellular solution with 2 mM CaCl2, 1.3 mM MgCl2; bound Fc signal divided by surface HA signal and normalised to IgSF21 WT
IgSF21-HA R55K (mouse) = molecular target: T1, IgSF21-HA R55K (mouse) (UniProt Q7TNR6)
T1 sequence: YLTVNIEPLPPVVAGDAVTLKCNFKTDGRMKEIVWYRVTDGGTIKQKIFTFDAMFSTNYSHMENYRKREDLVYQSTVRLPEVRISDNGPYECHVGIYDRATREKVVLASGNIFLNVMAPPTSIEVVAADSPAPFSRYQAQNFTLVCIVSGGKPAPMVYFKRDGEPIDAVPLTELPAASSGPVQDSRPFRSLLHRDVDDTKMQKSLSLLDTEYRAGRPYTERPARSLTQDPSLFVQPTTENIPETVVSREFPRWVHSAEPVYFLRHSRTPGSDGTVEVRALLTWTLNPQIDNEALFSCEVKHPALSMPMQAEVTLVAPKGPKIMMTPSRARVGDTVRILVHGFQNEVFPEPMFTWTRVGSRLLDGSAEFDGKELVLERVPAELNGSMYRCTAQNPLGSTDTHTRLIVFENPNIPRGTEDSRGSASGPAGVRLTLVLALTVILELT

[1] = molecular target: extracellularly HA-tagged mouse IgSF21 (IgSF21-HA), wild type (mouse) (UniProt Q7TNR6)
IgSF21-HA K45D (mouse) = molecular target: T2, IgSF21-HA K45D (mouse) (UniProt Q7TNR6)
T2 sequence: T1 sequence with K21D, K31R

IgSF21-HA D76K (mouse) = molecular target: T3, IgSF21-HA D76K (mouse) (UniProt Q7TNR6)
T3 sequence: T1 sequence with K31R, D52K

IgSF21-HA D76N (mouse) = molecular target: T4, IgSF21-HA D76N (mouse) (UniProt Q7TNR6)
T4 sequence: T1 sequence with K31R, D52N

binding (IgSF21-HA R55K (mouse)): no binding | binding [1]: binds | binding (IgSF21-HA K45D (mouse)): binds | binding (IgSF21-HA D76K (mouse)): no binding | binding (IgSF21-HA D76N (mouse)): no binding
Substance: soluble Fc-tagged mouse Nrxn2α ectodomain (Nrxn2α-Fc) (from UniProt E9Q7X7 29-1634) (Fc fusion)
